# Article PMC5842656
# Chains of the proteins cited; added tags and fusions are not shown.
# UniProt Q9GZV5: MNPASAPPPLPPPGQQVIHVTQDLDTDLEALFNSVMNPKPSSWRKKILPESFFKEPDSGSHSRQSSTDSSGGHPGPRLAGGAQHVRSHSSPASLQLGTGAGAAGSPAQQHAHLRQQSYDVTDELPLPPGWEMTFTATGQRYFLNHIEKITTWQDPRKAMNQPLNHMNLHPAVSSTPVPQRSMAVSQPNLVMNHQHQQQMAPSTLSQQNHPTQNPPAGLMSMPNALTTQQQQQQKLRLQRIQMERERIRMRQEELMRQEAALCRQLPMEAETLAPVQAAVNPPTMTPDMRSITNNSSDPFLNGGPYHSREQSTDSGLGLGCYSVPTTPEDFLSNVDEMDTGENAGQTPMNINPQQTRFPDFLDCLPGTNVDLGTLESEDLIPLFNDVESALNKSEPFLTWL
# UniProt Q13950: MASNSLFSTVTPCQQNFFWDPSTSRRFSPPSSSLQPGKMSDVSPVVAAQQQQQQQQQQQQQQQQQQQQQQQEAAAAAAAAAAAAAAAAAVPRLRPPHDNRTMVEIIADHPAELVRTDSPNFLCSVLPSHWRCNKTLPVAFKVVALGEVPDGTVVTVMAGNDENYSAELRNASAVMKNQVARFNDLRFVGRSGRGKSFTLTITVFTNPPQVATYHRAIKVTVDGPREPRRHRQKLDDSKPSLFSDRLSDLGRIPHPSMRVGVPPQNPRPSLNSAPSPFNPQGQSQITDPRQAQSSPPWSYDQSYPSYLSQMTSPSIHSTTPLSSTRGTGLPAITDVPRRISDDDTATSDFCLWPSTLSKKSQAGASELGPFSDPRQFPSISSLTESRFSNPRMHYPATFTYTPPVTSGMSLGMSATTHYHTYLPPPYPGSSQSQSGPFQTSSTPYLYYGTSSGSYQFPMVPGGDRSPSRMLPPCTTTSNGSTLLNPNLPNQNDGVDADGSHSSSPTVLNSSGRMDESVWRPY
# Results are given in words; binding and its absence hold for the method and conditions named. In cells and extracts the contact can be indirect. Some results given as binding are weak or reduced against the parent protein; the word gives no strength.
# Legend:
# [1] = target: Transcriptional coactivator with PDZ-binding motif (TAZ), endogenous in human adipose-derived stem cells (human (endogenous in ADSCs)) (UniProt Q9GZV5); experiment: co-IP; lysates of ADSCs treated with osteoinductive medium with or without TM-25659 (10 μM); immunoprecipitated with a TAZ antibody or an IgG; Runx2 detected by Western blot; Pierce Co-Immunoprecipitation Kit
# [2] = target: Transcriptional coactivator with PDZ-binding motif (TAZ), exogenous, overexpressed in HEK293T cells (human) (UniProt Q9GZV5); experiment: co-IP; lysates of HEK293T cells infected with TAZ-overexpressing lentiviral particles, with or without TM-25659 (10 μM, 24 h); immunoprecipitated with a TAZ antibody or an IgG; Runx2 detected by Western blot; Pierce Co-Immunoprecipitation Kit
binding [1],binding [2],Substance
binds,–,"Runt-related transcription factor 2 (Runx2), endogenous in human adipose-derived stem cells (from UniProt Q13950 1-521)"
–,binds,"Runt-related transcription factor 2 (Runx2), endogenous in HEK293T cells (from UniProt Q13950 1-521)"
